Experimental data as given in paper PMC10319324.
No constants are given. Whether binding was seen depends on the method and setting.

Molecular target: human PI31 C-terminal domain, residues 152-271 (human) (UniProt Q92530)
Experiment: cross-linking; 23 μM protein in 20 mM Hepes (pH 7.8), 20 mM NaCl, 0.05% glutaraldehyde for 15 min on ice; SDS-PAGE and blot against PI31; both purified

- binding: no binding (tested: 23 μM)
B1: human PI31 C-terminal domain, residues 152-271 (domain or fragment, UniProt Q92530 152-271)
chain: SSPHREFPPATAREVDPLRIPPHHPHTSRQPPWCDPLGPFVVGGEDLDPFGPRRGGMIVDPLRSGFPRALIDPSSGLPNRLPPGAVPPGARFDPFGPIGTSPPGPNPDHLPPPGYDDMYL
